Results published in publication PMC8453981.
These are yes or no findings as the source states them, for the method shown. Some entries that bind do so weakly or less than the wild type.

By UniProt entry, the sequences of proteins in these tests, tags left out.
UniProt A0A2W0FH34: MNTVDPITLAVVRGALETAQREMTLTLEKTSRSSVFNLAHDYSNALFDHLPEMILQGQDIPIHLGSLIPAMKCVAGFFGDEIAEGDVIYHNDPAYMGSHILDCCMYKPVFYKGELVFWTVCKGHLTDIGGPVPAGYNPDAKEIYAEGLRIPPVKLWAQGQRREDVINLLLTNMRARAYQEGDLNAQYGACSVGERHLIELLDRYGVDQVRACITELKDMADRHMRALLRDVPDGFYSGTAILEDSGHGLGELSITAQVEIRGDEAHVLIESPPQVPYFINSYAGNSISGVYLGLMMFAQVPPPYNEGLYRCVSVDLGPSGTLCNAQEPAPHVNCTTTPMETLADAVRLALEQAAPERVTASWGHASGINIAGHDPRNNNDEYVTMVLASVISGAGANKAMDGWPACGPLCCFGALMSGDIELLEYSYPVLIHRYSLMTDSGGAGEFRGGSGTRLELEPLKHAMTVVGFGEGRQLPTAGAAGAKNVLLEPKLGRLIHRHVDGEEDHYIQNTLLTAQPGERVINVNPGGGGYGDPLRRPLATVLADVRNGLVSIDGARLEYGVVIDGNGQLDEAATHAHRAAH

Columns and labels:
[1] = target: Caprolactamase subunit α (CapA) from Pseudomonas jessenii GO3 (Pseudomonas jessenii GO3); assay: dynamic light scattering; purified CapAB after gel filtration (20 mM Tris-HCl pH 7.5, 150 mM NaCl, 10 mM MgCl2, 2% glycerol), 20°C; both purified
[2] = target: Caprolactamase subunit α (CapA) from Pseudomonas jessenii GO3 (Pseudomonas jessenii GO3); assay: crystal structure; co-purified CapAB, 5.1 mg/mL; crystal from 0.02 M Na/K phosphate, 0.1 M Bis-Tris propane pH 7.5, 20% PEG3350, 294 K; 4.0 Å, molecular replacement; two CapAB dimers in the asymmetric unit; both purified
[3] = target: Caprolactamase subunit α (CapA) from Pseudomonas jessenii GO3 (Pseudomonas jessenii GO3); assay: co-purification by His-tag affinity chromatography; CapA with C-terminal His tag and untagged CapB co-expressed in E. coli C41(DE3); cell-free extract incubated with Ni-NTA resin 1.5 h at 4°C in AB buffer (50 mM ammonium bicarbonate-NaOH pH 8.0, 10 mM MgCl2, 5% glycerol), washed with 20 mM imidazole, eluted with 300 mM imidazole; SDS-PAGE

Measured: binding

Caprolactamase subunit β (CapB) from Pseudomonas jessenii GO3 (from UniProt A0A2W0FH34 1-581)
binds: all assays above
